One molecule from PMC3368771 can be followed below.

Protein sequences, listed by entry. Tags and fused reporters are not part of them.
UniProt O45495: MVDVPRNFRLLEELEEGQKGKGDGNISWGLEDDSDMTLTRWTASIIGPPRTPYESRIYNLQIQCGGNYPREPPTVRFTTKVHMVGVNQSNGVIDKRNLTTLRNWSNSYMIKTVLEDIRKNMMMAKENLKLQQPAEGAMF

These are yes or no findings as the source states them, for the method shown. Some results given as binding are weak or reduced against the parent protein; the word gives no strength.

The experiment concerns the target UEV-1 (C. elegans) (UniProt O45495). The experiment can be described thus: two-hybrid; yeast two-hybrid; unpublished data (S. Utarrala and L.B.), told beside a citation of ref. 58; which protein was bait is not told.

B1: UBC-13 (enzyme, UniProt Q95XX0 1-151)
chain: MAGQLPRRIIKETQRLLADPVPGISANPDESNARYFHVMIAGPDDSPFAGGVFKLELFLPEEYPMAAPKVRFMTKIYHPNIDKLGRICLDILKDKWSPALQIRTVLLSIQALLSAPNPEDPLATDVAEQWKTNEAEAIKTAKQWTMNYAQA
Regarding B1, the binding result is given as “binds”.
